Experimental data as given in patent US8182837B2, “Methods and compositions for reducing the risk associated with the administration of opioid analgesics in patients with diagnosed or undiagnosed respiratory illness” (QRxPharma Limited, priority 2003, dated 2012).
Like-named read-outs stand apart in the source and are kept apart here.

Columns and labels:
[1] = oral syrup, steady-state, 21 patients
[2] = oral syrup, steady-state

## CN1CC[C@]23c4c5ccc(O)c4O[C@H]2[C@@H](O)C=C[C@H]3[C@H]1C5 [Morphine, morphine]
[1]
  Dose (by weight) required for stabilized pain control: 108 mg
[2]
  Dose (by weight) required for stabilized pain control: 68 mg
